# Experimental data: PubChem BioAssay AID2073 (Sanford-Burnham Center for Chemical Genomics, 2009)
# Protein sequences, listed by entry. Tags and fused reporters are not part of them.
# UniProt Q00975, whole entry, looked up: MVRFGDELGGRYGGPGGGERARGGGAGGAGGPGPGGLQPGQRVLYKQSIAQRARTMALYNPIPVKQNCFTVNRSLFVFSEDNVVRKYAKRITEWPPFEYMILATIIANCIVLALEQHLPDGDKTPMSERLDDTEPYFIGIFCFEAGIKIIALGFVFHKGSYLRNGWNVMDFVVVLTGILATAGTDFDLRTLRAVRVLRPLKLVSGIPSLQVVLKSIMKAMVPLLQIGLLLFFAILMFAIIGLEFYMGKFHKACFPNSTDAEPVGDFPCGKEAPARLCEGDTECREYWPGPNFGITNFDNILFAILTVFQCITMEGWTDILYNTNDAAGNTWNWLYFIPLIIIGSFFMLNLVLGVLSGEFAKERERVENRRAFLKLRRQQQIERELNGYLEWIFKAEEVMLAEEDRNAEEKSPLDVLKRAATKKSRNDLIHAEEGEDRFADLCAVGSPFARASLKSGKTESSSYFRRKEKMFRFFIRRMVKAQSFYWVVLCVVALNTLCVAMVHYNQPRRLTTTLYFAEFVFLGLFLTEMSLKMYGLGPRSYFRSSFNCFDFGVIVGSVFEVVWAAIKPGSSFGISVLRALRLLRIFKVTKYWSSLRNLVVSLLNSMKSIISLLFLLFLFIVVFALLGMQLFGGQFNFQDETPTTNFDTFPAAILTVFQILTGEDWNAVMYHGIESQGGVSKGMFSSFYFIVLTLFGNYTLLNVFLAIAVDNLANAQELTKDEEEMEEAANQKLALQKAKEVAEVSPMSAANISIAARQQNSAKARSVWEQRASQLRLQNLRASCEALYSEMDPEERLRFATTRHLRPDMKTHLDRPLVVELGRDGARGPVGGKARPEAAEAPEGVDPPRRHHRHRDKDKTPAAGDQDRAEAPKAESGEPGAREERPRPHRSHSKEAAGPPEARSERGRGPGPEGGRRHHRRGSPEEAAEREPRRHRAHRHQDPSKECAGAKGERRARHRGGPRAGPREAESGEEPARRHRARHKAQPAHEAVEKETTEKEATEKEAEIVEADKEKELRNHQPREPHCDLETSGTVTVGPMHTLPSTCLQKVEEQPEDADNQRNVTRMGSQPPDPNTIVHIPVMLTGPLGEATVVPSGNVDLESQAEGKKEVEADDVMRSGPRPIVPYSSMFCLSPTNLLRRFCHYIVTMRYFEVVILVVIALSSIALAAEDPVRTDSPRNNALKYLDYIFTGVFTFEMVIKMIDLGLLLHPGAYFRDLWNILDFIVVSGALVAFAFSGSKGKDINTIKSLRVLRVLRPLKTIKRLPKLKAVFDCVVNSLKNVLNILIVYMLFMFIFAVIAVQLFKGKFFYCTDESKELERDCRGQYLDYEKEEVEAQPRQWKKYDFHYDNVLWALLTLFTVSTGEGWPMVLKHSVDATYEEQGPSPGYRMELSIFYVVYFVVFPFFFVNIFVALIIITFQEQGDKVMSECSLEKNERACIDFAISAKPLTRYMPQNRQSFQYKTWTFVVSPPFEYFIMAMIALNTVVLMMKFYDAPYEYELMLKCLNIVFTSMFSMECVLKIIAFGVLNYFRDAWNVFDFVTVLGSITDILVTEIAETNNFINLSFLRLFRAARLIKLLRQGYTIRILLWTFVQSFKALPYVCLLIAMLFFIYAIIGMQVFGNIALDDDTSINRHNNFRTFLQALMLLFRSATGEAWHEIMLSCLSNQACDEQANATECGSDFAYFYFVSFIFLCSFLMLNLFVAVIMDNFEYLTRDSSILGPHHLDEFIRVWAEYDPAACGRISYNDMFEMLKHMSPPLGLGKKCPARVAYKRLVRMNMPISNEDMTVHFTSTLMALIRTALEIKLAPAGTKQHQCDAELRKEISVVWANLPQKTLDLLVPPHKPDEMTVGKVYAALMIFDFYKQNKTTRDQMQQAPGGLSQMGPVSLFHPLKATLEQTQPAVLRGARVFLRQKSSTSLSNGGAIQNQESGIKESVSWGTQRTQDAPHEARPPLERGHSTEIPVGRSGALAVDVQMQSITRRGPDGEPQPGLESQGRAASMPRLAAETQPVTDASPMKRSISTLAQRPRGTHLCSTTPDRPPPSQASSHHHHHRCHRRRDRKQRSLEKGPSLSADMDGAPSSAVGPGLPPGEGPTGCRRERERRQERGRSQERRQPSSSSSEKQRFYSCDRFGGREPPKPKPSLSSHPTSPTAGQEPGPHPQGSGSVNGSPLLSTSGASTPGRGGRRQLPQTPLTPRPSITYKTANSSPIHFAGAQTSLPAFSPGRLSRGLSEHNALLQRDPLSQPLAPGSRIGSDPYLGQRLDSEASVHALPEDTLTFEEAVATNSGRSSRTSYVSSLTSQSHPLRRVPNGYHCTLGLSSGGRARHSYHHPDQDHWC
# Among all 290,000 compounds or so, about 570 (0.2%) were called active. Cut-off read from the data, not from the text of the source: active = inhibition mostly above about 51% (no sharp cut-off); inconclusive = no clear call, values can overlap the other calls; inactive = mostly below about 53%. Inconclusive means that the source gave no clear call.
# Target: Voltage-dependent N-type calcium channel subunit alpha-1B (Homo sapiens) (UniProt Q00975)
# Assay: disruptors of CaV2.2 binding to Mint1 – biochemical, HTRF (AID 2073)
# Conditions: HTRF protein-protein interaction, Mint1-CaV2.2; at 20 µM; hits give high values
row,Compound,inhibition
1,Cc1cccc(S(=O)(=O)Nc2nc3ccccc3nc2Nc2cccc(C(=O)O)c2)c1,inconclusive: 56.6%
